The list shows a part of the results. Cut-off read from the data, not from the text of the source: active = 2 or more and inactive = the rest. Most values lie within the scatter of the assay; repeated measurements hardly agree.
Test system: Lgr5 (MarsCy1-Lgr5-EGFP, U2OS)
Assay: cell-surface Lgr5 expression (SCi1 fluorescence, background-subtracted) relative to WT DMSO (fold of DMSO control); higher = more Lgr5 at the plasma membrane
Conditions: U2OS MarsCy1-Lgr5-EGFP stable; treatment time: overnight; library: ActiProbe-5K (TimTec); 25 µM

Structure (SMILES)	cell-surface Lgr5 expression
C1(/c2c3c(cccc3C1)ccc2)=C(\C#N)C#N	inactive: 1.27
Nc1nc2nc(-c3ccco3)cc(C(F)(F)F)n2n1	inactive: 1.75
O=S(=O)(c1cc(Cl)ccc1Cl)N1CCN(C23CC4CC(CC(C4)C2)C3)CC1	inactive: 0.752
Cc1ccc2nsnc2c1S(=O)(=O)NCc1ccc(S(N)(=O)=O)cc1	inactive: 1.08
C(=C(\Cl)Cl)(/COC(=O)CCCC(NC1CCCCC1)=O)Cl	inactive: 0.995
Clc1cc(Cl)cc(N/N=C/c2ccccn2)c1	inactive: 1.41
CS(=O)(=O)N1CCc2cc(S(=O)(=O)NC(c3ccccc3)c3ccccc3)ccc21	inactive: 1.04
CS(=O)(=O)c1ccc(Br)cc1	active: 2.97
Cn1ccnc1CN1CCN(Cc2nccn2C)CC1	inactive: 1.07
C/C=C1\CN2CCC34C(=C(/C=N/Nc5ccccc5)C1CC23)Nc1ccccc14 (centres undefined)	inactive: 0.96
Oc1ccc(Br)cc1/C=N\CC/N=C/c1cc(Br)ccc1O	inactive: 0.781
O=C(Cc1cccs1)N/N=C/C=C/c1ccco1	inactive: 1.02
COCc1c(C(=O)O)nnn1-c1nonc1N	inactive: 1.2
CN1CC2c3ccccc3OC(c3ccc4c(c3)OCO4)C2([N+](=O)[O-])O1 (centres undefined)	inactive: 1.26
N#Cc1sc2nc(-c3cccs3)ccc2c1N	inactive: 1
CCOc1cc2c(cc1OCC)C(C1CC=CCC1)NCC2 (centres undefined)	inactive: 1.11
O=C(C1=C(O)C(=O)N(CCCN2CCOCC2)C1c1ccco1)c1ccco1 (centres undefined)	inactive: 1.09
N#CC1=C(N)C(C#N)(C#N)C(c2cc(Br)cs2)C2CCCC=C12 (centres undefined)	inactive: 1.09
Clc1cccc(C2Nc3cccc4cccc(c34)N2)c1	inactive: 0.908
O=C1N(CN2CCC3(CC2)OCCO3)c2ccccc2C12OCCCCO2	inactive: 1.25
O=C(O)c1ccc(Cl)s1	inactive: 1.09
c1ccc(Sc2ccc3ccccc3n2)cc1	inactive: 0.695

Structure (SMILES)	cell-surface Lgr5 expression
C#CCSc1nc2c(cc1C#N)CCCC2	inactive: 1.62
O=c1[nH]c2ccc(Cl)cc2o1	inactive: 1.14
CCOc1sc(C)c(C)c(=O)c1N	inactive: 0.971
CC1=C(C)N(c2ccccc2)N=C(S)S1	inactive: 1.67
COC(=O)c1[nH]nc(-c2n[nH]c(C(=O)OC)c2[N+](=O)[O-])c1[N+](=O)[O-]	inactive: 1.13
CN(/N=C\c1ccc(OCc2ccccc2)cc1)C1=NS(=O)(=O)c2ccccc21	inactive: 1.06
O=C(Cc1cccs1)N/N=C/c1cc(Br)c(Br)o1	inactive: 1.06
Nc1c(C(=O)C2CC2)sc2nc3c(cc12)CCCC3	inactive: 1.23
O=C(CCC1CCCCC1)Nc1nc2c(s1)CCCCC2	inactive: 1.3
CCOC(=O)c1n[nH]c(C(C)(C)C)c1Br	inactive: 1.05
Nc1nonc1NC(=O)CSC1=NCCS1	inactive: 1.21
Nc1ccc(S(N)(=O)=O)cc1	inactive: 1.21
NNC(=O)CCCCC1SCC2NC(=O)NC21 (centres undefined)	inactive: 1.09
Cn1cccc1/C=C(/C#N)C(N)=O	inactive: 1.54
c1cc(CCCc2ccncc2)ccn1	inactive: 0.881
CNC(=O)c1c(NC(=O)c2cccs2)sc2c1CCCC2	inactive: 1.24
O=C(O)C1CCCN1S(=O)(=O)c1ccc(Br)s1 (centres undefined)	inactive: 1.18
Clc1ccc(Cl)c(-c2nc3ccccc3o2)n1	inactive: 1.68
Cn1ncc([N+](=O)[O-])c1C(=O)NNC(=S)NC1CC1	inactive: 1.32
c1ccc2[nH]c(CSc3nc4ccccc4[nH]3)nc2c1	inactive: 1.15
N=c1[nH]c(=O)c2ncn([C@H]3C[C@H](O)[C@@H](CO)O3)c2[nH]1	inactive: 0.867
O=S(=O)(c1cccc2nsnc12)N1CCN(C(c2ccccc2)c2ccccc2)CC1	inactive: 0.888

Structure (SMILES)	cell-surface Lgr5 expression
Nc1cc(=O)[nH]c(=S)n1C1CCCC1	inactive: 0.982
CNC(=S)N1CCOCC1	inactive: 0.906
O=c1ccc2nc3ccc([O-])cc3oc-2c1	inactive: 0.746
Nc1ccc2nn(-c3cccc4ccccc34)nc2c1	inactive: 0.936
Cn1c(=O)c2[nH]c(Br)c(Br)c2n(C)c1=O	inactive: 0.937
Cc1nc2sc(-c3ccon3)c(N)c2c(C)c1Cl	inactive: 1.04
s1cc(cc1/C=C(\C#N)C#N)CSc1n(nnn1)C	inactive: 0.859
Cc1nn(CCCN2C(=O)CS/C2=N\C2CC2)c(C)c1Br	inactive: 1.35
Cn1nc(C2CC2)c2c(C(F)F)cc(-c3ccc4c(c3)OCO4)nc21	inactive: 1.22
[Cl-].[NH3+]Cc1c(F)cc(F)c(F)c1F	inactive: 1.26
N(C)(c1ccccc1)C(/N=C(\N)N)=N	inactive: 1.23
ClCCOc1nc(OCCCl)nc(OCCCl)n1	inactive: 1.25
Nc1ncnc2oc(-c3ccoc3)c(-c3ccco3)c12	inactive: 0.782
COc1ccc(Cl)cc1NS(=O)(=O)N(C)C	inactive: 0.867
Cc1cc(-n2nc(N)nc2N)n2ncnc2n1	inactive: 1.29
O=C(N/N=C/c1cccs1)c1ccco1	inactive: 1.05
Cc1[nH]nc2c1C(C(C)C)C(C#N)=C(N)O2 (centres undefined)	inactive: 0.917
Oc1nc(S)nc2sc3c(c12)CCCC3	inactive: 1.23
Nc1cc(N)nc(SCCOc2ccc(Cl)cc2)n1	inactive: 1.23
CC(=O)Nc1nonc1NC(=O)CSc1nc[nH]n1	inactive: 0.978
c1coc(CN2COc3cc4c(cc3C2)OCN(Cc2ccco2)C4)c1	inactive: 1.54
COc1ccc(OCCSc2nc3ccccc3o2)cc1	inactive: 1.07

Ordered by count of non-hydrogen atoms (largest number first): part of the list above
Structure (SMILES)	cell-surface Lgr5 expression
Cc1nn(CCCN2C(=O)CS/C2=N\C2CC2)c(C)c1Br	inactive: 1.35
COc1ccc(Cl)cc1NS(=O)(=O)N(C)C	inactive: 0.867
Cn1c(=O)c2[nH]c(Br)c(Br)c2n(C)c1=O	inactive: 0.937

More records follow:

Structure (SMILES)	cell-surface Lgr5 expression
Cc1ccsc1C1C(C#N)=C(N)Oc2n[nH]c(C(C)(C)C)c21 (centres undefined)	inactive: 1.09
COc1ccc(-c2cc(C(F)(F)C(F)F)on2)cc1	inactive: 1.15
CCN1c2ccccc2-c2c(ssc2=S)C1(C)C	inactive: 0.779
C/C(=N/C1CC1)c1c(C)[nH]n(-c2nc3ccccc3s2)c1=O	inactive: 1.64
CC1(C)CC(=O)C2=C(C1)OC(=O)C2(NC(=O)c1cccs1)C(F)(F)F (centres undefined)	inactive: 1.03
COc1ccc2sc(N)nc2c1	inactive: 1.33
CCOC(=O)/C(C#N)=C/Nc1cc(C)on1	inactive: 0.969
CSC(=O)/C(C#N)=C/c1ccoc1	inactive: 1.27
COC(=O)c1n[nH]cc1N	inactive: 1.14
Fc1ccc(SCSc2ccccc2)cc1	inactive: 1.06
CC(=O)C1=C(C)Nc2ncnn2C1c1cccs1 (centres undefined)	inactive: 0.937
Cc1nn(C)cc1-c1nnc(-c2ccnn2C(F)F)o1	inactive: 1.18
COC(=O)CSc1nsc(SCC(=O)OC)c1C#N	inactive: 1.03
CN(C)c1nc(N)nc(CN(c2ccc(F)cc2)S(C)(=O)=O)n1	inactive: 1.52
CC(=O)C(C(C)=O)C12CC3CC(CC(C3)C1)C2	inactive: 1.05
C(=N/N1CCN(C2c3ccccc3-c3ccccc32)CC1)/c1c[nH]c2ccccc12	inactive: 1.17
C#CCNC1CCCCC1C(C)=O (centres undefined)	inactive: 1.02
O=C(O)CC(C(=O)O)C1CCCO1 (centres undefined)	inactive: 1.3
CCn1cc2nnn(Cc3ccco3)c(=O)c2n1	inactive: 1.31
N#Cc1ccnc(Oc2ccc(F)cc2F)c1	inactive: 1.39
O=[N+]([O-])c1ccc(/C=N\c2cc(Cl)c(Cl)cc2Cl)o1	inactive: 1.22
CCOC1(C)OC2CCC(CC)OC2O1 (centres undefined)	inactive: 1.21

Structure (SMILES)	cell-surface Lgr5 expression
Cc1ccc(C2=NNC(C)(C3(C)NN=C(c4ccc(C)cc4)S3)S2)cc1 (centres undefined)	inactive: 1.25
CC(=O)Nc1ccc(NC(=N)Nc2nc(C)cc(C)n2)cc1	inactive: 1.07
CCC1C[N+]2(C)CCC34C(=C(C=O)[C@H]1C[C@@H]32)Nc1ccccc14 (some centres undefined)	inactive: 1.34
N#CC1=C(N2CCOCC2)c2cc3c(n2C1=N)CCCC3	inactive: 1.04
NC1=NNC(=O)/C1=C1/CCCN1	inactive: 0.879
CC(=O)c1c(NC2CCCCC2)oc(C)cc1=O	inactive: 1.09
CC1=C(c2nnn[nH]2)C(=O)OC1(C)C	inactive: 0.975
O=C(Nn1cnnc1)c1ccco1	inactive: 1.36
O=C(NNC(=S)NC1CCCCC1)c1n[nH]cc1[N+](=O)[O-]	inactive: 1.11
O=C1N(O)C2(C=CCCC2)/C(=N/O)C12CCCCC2 (centres undefined)	inactive: 1.1
O=C(N1CCNCC1)C12CC3CC(CC(C3)C1)C2	inactive: 1.34
CC(=O)Nc1cc(=O)[nH]c(C)n1	inactive: 1.31
O=C1NCS(=O)(=O)c2ccccc21	inactive: 0.992
O=C1NN(c2cccc(Br)c2)C(=O)/C1=C1/C(=O)Nc2ccccc21	inactive: 0.999
Nc1cc(N)cc(Oc2cc(N)cc(N)c2)c1	inactive: 1.09
N#Cc1c(N)nc2c(c1-c1ccc(Br)s1)CCCCCC2	inactive: 0.806
N#CCS/C(SCC(=O)c1ccc2c(c1)OCO2)=C(/C#N)C(=O)c1ccc2c(c1)OCO2	active: 2.98
Sc1nnc(-c2ccc(Cl)cc2)o1	inactive: 1.13
Cc1nccn1CCCN1C(=O)OC2(CCCCC2)C1(C)O (centres undefined)	inactive: 1.11
Cn1cc(Cn2ccc(N)n2)cn1	inactive: 1.08
CC1CCc2c(sc3nc(-c4cccs4)oc(=O)c23)C1 (centres undefined)	inactive: 1.05

Reference: the supplement of paper PMC4683952
